Reference: paper PMC4414150, “Zfra activates memory Hyal-2+ CD3− CD19− spleen cells to block cancer growth, stemness, and metastasis in vivo” (Oncotarget, 2015)
Results are given in words; binding and its absence hold for the method and conditions named. Binding seen in cells or lysates may run through a third protein. Binding can be weak; no strength is given.

Target: T1, DsRed-Zfra
T1 sequence: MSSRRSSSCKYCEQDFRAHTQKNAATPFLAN
Assay: FRET or BRET; FRET microscopy (FRETc) in COS7 fibroblasts co-transfected with EGFP and DsRed constructs

binding: binds
Substance: EGFP-Hyal-2
